Results taken from the supplement of paper PMC10849652.
Some of the results follow.

Chains of the proteins cited; added tags and fusions are not shown. Lines headed by an entry give the natural chain unless they say otherwise; changes in a name come on top.
UniProt Q8TF74: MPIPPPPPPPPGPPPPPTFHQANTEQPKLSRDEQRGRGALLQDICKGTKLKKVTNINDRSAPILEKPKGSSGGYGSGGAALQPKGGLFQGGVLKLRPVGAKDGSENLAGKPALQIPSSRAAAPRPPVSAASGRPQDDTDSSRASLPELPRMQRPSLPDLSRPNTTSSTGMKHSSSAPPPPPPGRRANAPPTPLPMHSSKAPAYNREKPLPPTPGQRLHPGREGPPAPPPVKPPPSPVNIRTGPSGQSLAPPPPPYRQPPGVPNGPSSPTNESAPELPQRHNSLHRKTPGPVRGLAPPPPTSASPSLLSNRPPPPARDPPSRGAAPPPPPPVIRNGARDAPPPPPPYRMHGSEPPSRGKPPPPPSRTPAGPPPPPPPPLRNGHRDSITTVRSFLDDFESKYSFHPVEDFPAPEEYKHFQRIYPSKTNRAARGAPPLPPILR
UniProt Q8IWB7: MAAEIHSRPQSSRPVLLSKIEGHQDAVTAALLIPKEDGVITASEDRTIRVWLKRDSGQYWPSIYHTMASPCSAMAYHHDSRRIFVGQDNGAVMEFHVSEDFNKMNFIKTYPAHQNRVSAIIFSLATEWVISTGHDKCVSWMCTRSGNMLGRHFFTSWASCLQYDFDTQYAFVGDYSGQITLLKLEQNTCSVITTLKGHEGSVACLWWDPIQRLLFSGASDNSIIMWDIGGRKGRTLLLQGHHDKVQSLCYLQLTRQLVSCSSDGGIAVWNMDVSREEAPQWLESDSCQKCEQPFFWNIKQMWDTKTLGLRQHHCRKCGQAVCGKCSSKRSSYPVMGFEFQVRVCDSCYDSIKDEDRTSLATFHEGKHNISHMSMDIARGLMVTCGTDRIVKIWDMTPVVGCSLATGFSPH
UniProt Q9H9H4: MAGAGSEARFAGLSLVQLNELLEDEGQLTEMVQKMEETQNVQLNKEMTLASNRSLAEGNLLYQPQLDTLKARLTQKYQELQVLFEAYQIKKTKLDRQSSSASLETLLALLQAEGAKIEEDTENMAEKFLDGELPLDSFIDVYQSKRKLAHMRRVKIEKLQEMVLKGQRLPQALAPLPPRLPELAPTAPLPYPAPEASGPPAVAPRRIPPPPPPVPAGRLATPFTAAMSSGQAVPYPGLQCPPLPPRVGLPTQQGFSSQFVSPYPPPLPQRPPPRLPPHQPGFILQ
UniProt O00534: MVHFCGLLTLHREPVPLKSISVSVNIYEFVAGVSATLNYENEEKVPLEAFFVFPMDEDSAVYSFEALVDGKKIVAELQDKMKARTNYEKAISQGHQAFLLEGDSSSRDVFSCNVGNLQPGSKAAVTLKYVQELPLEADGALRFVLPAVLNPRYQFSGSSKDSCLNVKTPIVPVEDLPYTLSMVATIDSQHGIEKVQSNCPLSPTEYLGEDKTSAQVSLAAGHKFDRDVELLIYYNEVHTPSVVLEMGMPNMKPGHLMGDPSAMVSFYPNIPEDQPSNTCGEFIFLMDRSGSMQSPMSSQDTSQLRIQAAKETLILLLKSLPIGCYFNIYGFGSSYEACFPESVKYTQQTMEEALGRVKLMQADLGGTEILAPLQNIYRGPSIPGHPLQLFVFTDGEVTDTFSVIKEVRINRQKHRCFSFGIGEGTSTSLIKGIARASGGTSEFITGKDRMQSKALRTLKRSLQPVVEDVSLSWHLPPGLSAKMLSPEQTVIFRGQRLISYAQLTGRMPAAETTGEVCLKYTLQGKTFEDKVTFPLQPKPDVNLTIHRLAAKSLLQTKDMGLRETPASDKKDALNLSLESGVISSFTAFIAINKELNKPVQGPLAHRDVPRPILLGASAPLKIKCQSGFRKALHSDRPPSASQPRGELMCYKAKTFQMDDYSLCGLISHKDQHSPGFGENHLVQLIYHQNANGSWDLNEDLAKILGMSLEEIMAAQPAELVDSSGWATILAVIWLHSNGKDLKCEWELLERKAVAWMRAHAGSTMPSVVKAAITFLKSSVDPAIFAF
UniProt Q96RL7: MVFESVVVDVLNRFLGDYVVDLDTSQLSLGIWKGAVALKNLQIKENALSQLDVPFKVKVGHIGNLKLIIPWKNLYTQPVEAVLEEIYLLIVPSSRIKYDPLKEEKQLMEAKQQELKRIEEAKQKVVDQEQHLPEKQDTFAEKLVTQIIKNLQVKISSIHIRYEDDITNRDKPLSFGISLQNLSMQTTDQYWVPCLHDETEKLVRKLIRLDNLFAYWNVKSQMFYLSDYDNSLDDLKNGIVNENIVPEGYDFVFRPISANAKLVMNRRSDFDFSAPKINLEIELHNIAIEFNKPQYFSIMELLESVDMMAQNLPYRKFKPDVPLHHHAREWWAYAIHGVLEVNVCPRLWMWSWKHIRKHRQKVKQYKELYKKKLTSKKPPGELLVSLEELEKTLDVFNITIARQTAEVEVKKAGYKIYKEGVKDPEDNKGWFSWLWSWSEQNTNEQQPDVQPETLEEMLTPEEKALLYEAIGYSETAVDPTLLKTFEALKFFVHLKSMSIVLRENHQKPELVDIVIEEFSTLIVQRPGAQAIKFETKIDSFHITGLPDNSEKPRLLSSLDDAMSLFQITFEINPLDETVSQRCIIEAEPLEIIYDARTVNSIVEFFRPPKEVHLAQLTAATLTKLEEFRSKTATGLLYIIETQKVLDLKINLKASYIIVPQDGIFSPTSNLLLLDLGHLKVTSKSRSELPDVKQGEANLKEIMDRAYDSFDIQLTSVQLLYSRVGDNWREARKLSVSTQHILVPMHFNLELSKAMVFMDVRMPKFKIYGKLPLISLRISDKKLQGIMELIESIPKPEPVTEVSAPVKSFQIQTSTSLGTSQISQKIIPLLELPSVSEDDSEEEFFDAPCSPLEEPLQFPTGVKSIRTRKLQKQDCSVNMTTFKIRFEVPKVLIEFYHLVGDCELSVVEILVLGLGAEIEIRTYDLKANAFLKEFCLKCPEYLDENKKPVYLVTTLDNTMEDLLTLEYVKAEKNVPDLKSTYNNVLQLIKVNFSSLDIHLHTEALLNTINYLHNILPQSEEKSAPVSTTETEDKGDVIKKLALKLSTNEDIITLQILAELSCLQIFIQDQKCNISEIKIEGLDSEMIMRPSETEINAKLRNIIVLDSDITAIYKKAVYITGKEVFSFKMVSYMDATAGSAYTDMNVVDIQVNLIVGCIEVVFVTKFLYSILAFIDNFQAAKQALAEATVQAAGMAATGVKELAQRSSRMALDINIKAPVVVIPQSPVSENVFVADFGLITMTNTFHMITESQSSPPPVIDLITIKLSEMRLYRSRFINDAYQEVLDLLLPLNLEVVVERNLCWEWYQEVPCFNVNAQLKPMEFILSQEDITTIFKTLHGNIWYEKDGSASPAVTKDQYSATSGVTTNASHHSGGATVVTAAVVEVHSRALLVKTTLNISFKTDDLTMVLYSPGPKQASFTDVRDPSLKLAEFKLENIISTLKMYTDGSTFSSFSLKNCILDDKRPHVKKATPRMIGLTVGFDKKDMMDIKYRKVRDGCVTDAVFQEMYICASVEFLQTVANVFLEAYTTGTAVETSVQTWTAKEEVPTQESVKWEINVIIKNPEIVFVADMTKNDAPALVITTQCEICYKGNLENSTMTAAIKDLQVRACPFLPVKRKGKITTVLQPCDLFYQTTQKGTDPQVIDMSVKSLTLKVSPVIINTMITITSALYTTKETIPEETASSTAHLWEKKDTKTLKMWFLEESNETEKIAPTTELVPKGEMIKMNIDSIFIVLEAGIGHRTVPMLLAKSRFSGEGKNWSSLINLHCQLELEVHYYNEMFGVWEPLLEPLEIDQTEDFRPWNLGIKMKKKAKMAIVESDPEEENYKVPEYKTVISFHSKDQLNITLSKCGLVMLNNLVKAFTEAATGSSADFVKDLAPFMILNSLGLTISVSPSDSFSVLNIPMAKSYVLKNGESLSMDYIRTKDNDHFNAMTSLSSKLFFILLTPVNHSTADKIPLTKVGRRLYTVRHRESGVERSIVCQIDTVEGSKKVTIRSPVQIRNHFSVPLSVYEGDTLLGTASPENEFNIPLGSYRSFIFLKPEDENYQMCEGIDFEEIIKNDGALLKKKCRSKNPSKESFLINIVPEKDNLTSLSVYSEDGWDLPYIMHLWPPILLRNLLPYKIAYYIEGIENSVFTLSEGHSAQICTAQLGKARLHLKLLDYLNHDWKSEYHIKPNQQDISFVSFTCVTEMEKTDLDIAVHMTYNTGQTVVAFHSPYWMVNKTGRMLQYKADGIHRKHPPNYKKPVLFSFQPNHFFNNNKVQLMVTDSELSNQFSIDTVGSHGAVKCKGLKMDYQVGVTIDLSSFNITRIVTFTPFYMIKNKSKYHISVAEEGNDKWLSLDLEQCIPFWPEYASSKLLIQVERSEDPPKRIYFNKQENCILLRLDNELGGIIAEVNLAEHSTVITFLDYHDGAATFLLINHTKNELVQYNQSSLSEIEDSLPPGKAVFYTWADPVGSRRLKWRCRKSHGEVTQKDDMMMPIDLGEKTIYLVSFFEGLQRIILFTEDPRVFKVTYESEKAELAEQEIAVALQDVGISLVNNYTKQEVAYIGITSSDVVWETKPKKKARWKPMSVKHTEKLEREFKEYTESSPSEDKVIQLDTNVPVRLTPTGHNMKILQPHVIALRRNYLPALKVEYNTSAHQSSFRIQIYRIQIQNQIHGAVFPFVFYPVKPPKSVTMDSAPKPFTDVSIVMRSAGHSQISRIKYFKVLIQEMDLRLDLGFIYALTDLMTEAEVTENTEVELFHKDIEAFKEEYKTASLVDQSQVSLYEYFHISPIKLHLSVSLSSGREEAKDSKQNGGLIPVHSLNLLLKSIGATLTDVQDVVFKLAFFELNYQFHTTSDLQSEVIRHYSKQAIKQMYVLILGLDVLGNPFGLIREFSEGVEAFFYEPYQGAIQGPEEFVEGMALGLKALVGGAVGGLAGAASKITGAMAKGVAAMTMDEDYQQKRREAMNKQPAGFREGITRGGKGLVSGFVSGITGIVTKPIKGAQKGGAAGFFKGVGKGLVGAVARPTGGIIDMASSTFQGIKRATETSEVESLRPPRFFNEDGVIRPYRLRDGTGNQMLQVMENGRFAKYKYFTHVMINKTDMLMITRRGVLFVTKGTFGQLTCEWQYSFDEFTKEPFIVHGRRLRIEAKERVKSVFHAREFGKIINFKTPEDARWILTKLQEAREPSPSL
UniProt Q2M389: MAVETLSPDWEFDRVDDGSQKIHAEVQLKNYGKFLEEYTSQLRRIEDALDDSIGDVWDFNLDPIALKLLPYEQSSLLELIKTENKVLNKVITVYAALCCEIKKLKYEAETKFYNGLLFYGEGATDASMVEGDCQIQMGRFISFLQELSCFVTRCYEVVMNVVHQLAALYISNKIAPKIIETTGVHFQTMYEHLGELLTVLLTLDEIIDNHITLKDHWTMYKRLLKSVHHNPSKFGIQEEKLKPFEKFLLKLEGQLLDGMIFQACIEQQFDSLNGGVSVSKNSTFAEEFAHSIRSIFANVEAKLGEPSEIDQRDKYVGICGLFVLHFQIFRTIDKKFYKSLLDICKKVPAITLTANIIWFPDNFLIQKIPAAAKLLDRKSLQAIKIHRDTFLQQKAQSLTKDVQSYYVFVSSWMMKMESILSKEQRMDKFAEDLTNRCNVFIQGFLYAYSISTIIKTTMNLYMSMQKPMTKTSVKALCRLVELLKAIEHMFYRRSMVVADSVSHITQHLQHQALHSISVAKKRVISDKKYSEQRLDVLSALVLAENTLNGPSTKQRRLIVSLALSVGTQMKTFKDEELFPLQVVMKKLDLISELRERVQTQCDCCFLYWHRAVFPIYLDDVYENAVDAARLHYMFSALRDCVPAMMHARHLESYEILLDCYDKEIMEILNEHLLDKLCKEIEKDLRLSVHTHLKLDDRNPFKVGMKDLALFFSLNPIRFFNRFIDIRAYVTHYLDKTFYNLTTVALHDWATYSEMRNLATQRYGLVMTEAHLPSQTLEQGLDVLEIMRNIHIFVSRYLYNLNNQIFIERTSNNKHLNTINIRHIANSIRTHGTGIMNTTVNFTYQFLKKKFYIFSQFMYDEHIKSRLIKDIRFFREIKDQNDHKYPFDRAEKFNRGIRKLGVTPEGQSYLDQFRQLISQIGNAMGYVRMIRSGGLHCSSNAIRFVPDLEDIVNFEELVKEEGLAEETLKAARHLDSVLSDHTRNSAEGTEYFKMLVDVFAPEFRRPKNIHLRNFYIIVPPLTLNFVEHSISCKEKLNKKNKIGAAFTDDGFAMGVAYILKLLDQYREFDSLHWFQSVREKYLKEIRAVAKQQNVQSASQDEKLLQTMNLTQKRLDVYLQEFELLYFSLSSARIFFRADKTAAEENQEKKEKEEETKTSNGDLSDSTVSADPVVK

compound: CC(C)C1=C2N=C(C=C(N2N=C1)NCC3=CC=CC=C3)NCCCCCCN; assay: log2 fold change, soluble protein after heating vs DMSO (PISA); higher = thermal stabilisation; K562 cells, 10 uM, 30 min; active = over 0.2 and 3.5 SD of the protein, either way, in both replicates (recomputed)
Outline: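 Values are thermal stability changes relative to control samples and are taken from duplicates. They are stated as log2 fold changes. Before quantification by TMTpro 16plex LC-MS/MS with equalised channel sums, K562 cells at 2×10^6 cells/mL were treated with 10 μM compound for 30 min, heated in aliquots for 3 min across 48°C-58°C, pooled, extracted in PBS with 0.5% NP-40 at 4°C, and centrifuged at 21,000xg for 90 min to give the soluble supernatant.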

log2 fold change, inactive:
WDR5 (UniProt P61964) 0.061
WDR6 (UniProt Q9NNW5) -0.095
WDR13 (UniProt Q9H1Z4) 0.051
VPS4B (UniProt O75351) -0.076
WDR74 (UniProt Q6RFH5) 0.015
WDR36 (UniProt Q8NI36) 0.202
VPS13C (UniProt Q709C8) -0.109
WIPF2 (UniProt Q8TF74) 0.048
VPS36 (UniProt Q86VN1) -0.027
WDR70 (UniProt Q9NW82) 0.009
VPS26A (UniProt O75436) -0.011
VPS29 isoform 2 (UniProt Q9UBQ0) -0.005
WBP11 (UniProt Q9Y2W2) 0.09
WDR26, A0A499FIZ0 -0.021
VPS45 (UniProt Q9NRW7) -0.109
WDR82 (UniProt Q6UXN9) 0.08
WDFY1 (UniProt Q8IWB7) 0.039
VPS37B (UniProt Q9H9H4) -0.097
VWDE (UniProt Q8N2E2) 0
VWA5A (UniProt O00534) -0.018
VPS13A (UniProt Q96RL7) -0.029
WASL (UniProt O00401) -0.085
WDR73 (UniProt Q6P4I2) 0.024
WASHC4 (UniProt Q2M389) -0.185

For convenience, part of the list above:
log2 fold change, inactive:
WDR26, A0A499FIZ0 -0.021
VPS45 (UniProt Q9NRW7) -0.109
